The record followed here is paper PMC7228087.

Amino acid sequences for entries named in this document (tags omitted). A change or cut given only in a name is not applied to a line headed by its entry.
UniProt P61829, whole entry: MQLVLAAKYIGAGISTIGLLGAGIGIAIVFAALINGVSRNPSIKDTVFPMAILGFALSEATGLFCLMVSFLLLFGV

These are yes or no findings as the source states them, for the method shown. Binding seen in cells or lysates may run through a third protein. Some results given as binding are weak or reduced against the parent protein; the word gives no strength. Where a sequence is shown, tags or fusion partners need not be part of it.

For the experiment, the target named is T1, Cox6 with a tandem hemagglutinin plus protein C tag (S. cerevisiae) (UniProt P00427).
T1 sequence: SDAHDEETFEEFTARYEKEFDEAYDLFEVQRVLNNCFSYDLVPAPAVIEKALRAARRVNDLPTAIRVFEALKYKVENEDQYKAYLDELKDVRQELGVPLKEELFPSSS
As to the kind of experiment: co-IP; Cox6-HAC held on protein C antibody beads; 2% digitonin extracts of mitochondria labelled with 35S-methionine/cysteine; eluted with EDTA; SDS-PAGE and BN-PAGE, autoradiography; strains with Cox6-HAC without or with mss51, mss51 pet494 or cox5a null mutations, cells grown with or without 2 mg/ml chloramphenicol, pulse and chase.

In the case of Atp9 (from UniProt P61829 1-76), the binding result is recorded as “binds”.
Turning to Cox1 (from UniProt P00401 1-534), the binding entry is listed as “binds”.
